Laboratory results as given in publication PMC5339975, “Cytotoxicity, antimicrobial and antioxidant activity of eight compounds isolated from Entada abyssinica (Fabaceae)” (BMC Research Notes, 2017).

What was measured:
THP-1 cells = experiment: MTT cytotoxicity assay, cancer cells; assay type: cell-based; conditions: LC50 of Vero cells divided by LC50 of THP-1 cells
Protocol: (§1) Cancer cell lines including human monocytic THP-1 and murine macrophage RAW 264.7 cells and the normal mammalian Vero monkey kidney cell line were obtained from the American Type Culture Collection (Rockville, MD, USA). They were maintained in DMEM under standard cell culture conditions at 37 °C and 5% CO2 in a humidified environment.
(§2) The 3-(4,5-dimethylthiazol-2-yl)-2,5-diphenyltetrazolium bromide (MTT) assay was used to determine the cytotoxicity of the compounds as previously described. The selectivity index (SI) values to identify selective anti-cancer cell activity were calculated by dividing the LC50 values of normal Vero cells by the LC50 of cancer cells.

RAW 264.7 cells = experiment: MTT cytotoxicity assay, cancer cells; assay type: cell-based; conditions: LC50 of Vero cells divided by LC50 of RAW 264.7 cells
Protocol: as §1, §2

C[C@@H]1CC[C@@]2(C)C(C(=O)O)=CCC[C@@H]2[C@@]1(C)CC(=O)O [Compound 5, 13,14,15,16-tetranor-3-clerodene-12,18-dioic acid]
THP-1 SI (THP-1 cells): 3.23
RAW 264.7 SI (RAW 264.7 cells): 4.37

C[C@@H]1O[C@@H](Oc2c(-c3ccc(O)c(O)c3)oc3cc(O)cc(O)c3c2=O)[C@H](O)[C@H](O)[C@H]1O [Compound 2, quercetin-3-O-α-L-rhamnoside]
RAW 264.7 SI (RAW 264.7 cells): 4.28

O=C(CCCCCCCCCCCCCCCCCCCCCCCCC(=O)OC[C@@H](O)CO)OC[C@@H](O)CO [Compound 8, bis-[(S)-(2,3-dihydroxypropyl)] hexacosanedioate]
THP-1 SI (THP-1 cells): 1.08
RAW 264.7 SI (RAW 264.7 cells): 0.81

COC(=O)/C=C(/C)CC[C@]1(C)[C@H]2CCC=C(C(=O)O)[C@]2(C)CC[C@@H]1C [Compound 4, (8S)-kolavic acid 15-methyl ester]
THP-1 SI (THP-1 cells): 1.41
RAW 264.7 SI (RAW 264.7 cells): 1.35

COc1c(O)c(O)cc2c1COc1c-2oc2cc(O)cc(O)c2c1=O [Compound 7, entadanin]
THP-1 SI (THP-1 cells): 0.84
RAW 264.7 SI (RAW 264.7 cells): 3.68

COc1ccc(C[C@H](N)C(=O)N[C@H]2[C@@H](O)[C@H](n3cnc4c(N(C)C)ncnc43)O[C@@H]2CO)cc1 [Puromycin, reference compound]
THP-1 SI (THP-1 cells): 176.03
RAW 264.7 SI (RAW 264.7 cells): 61.23

COC(=O)c1cc(O)c(O)c(O)c1 [Compound 6, methyl gallate]
THP-1 SI (THP-1 cells): 0.94
RAW 264.7 SI (RAW 264.7 cells): 1.91
